The list shows a part of the results. Repeats in this data set agree poorly, so a single value says little.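 Cells: ReNCell VM human fetal ventral-midbrain neural progenitors, differentiated mitogen-free. Blinded raters compared doublecortin-stained (early neurons) or tyrosine hydroxylase-stained (dopaminergic neurons) images with untreated wells, where 0 means no change. After repeats and both raters were averaged, compounds scoring 2 or above became hits for retesting.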
The compounds below were run on ReNCell VM (assay: neuronal differentiation score (DCX+ cell fraction vs untreated, manual image score) (score (-3 to 3)); higher = more neuronal differentiation). Conditions: library: Prestwick; 2 uM; 2 weeks.

SMILES | neuronal differentiation score
CCC(Cc1c(I)cc(I)c(N)c1I)C(=O)O (centres undefined) [Iopanoic acid] | inactive: 0
C[C@@H](c1ncncc1F)[C@](O)(Cn1cncn1)c1ccc(F)cc1F [Voriconazole] | inactive: 0
CN1CCN(c2c(F)cc3c(=O)c(C(=O)O)cn4c3c2SCC4)CC1 [Rufloxacin] | inactive: 0
O=C(CCCN1CCC(O)(c2ccc(Br)cc2)CC1)c1ccc(F)cc1 [Bromperidol] | inactive: 0
CCOC(=O)C1=C(COCCN)NC(C)=C(C(=O)OC)C1c1ccccc1Cl (centres undefined) [Amlodipine] | inactive: 0
O=C(N/N=C/c1ccc([N+](=O)[O-])o1)c1ccc(O)cc1 [Nifuroxazide] | inactive: 0

Compounds from the list above containing fluorine, in the order listed:
SMILES | neuronal differentiation score
C[C@@H](c1ncncc1F)[C@](O)(Cn1cncn1)c1ccc(F)cc1F [Voriconazole] | inactive: 0
CN1CCN(c2c(F)cc3c(=O)c(C(=O)O)cn4c3c2SCC4)CC1 [Rufloxacin] | inactive: 0
O=C(CCCN1CCC(O)(c2ccc(Br)cc2)CC1)c1ccc(F)cc1 [Bromperidol] | inactive: 0

Same assay, conditions: library: Spectrum; 2 uM; 2 weeks

SMILES | neuronal differentiation score
CC(=O)CC(c1ccccc1)c1c(O)c2ccccc2oc1=O (centres undefined) | inactive: 0
CN1C(=O)OC(C)(C)C1=O | inactive: 0
CCCCCCCCCCCCCc1ccco1 | inactive: 0
CC(=O)N1CCN(c2ccc(OCC3COC(Cn4ccnc4)(c4ccc(Cl)cc4Cl)O3)cc2)CC1 (centres undefined) | inactive: 0
CC1=C(C)C(=O)C(C(CCCCCC(=O)O)c2ccccc2)=C(C)C1=O (centres undefined) | inactive: 0
CCCCCCCCCCCCCCCCC(C(=O)O)C(O)(CC(=O)O)C(=O)O (centres undefined) | inactive: 0
NC(=O)c1ccc[n+]([C@@H]2O[C@H](COP(=O)([O-])OP(=O)(O)OC[C@H]3O[C@@H](n4cnc5c(N)ncnc54)[C@H](O)[C@@H]3O)[C@@H](O)[C@H]2O)c1 | inactive: 0
CC(=O)N[C@@H]([C@@H](O)[C@H](O)[C@H](O)CO)[C@@H](O)CC(=O)C(=O)O | inactive: 0

From the supplement of paper PMC4635364
